Experimental data taken from PMC5395654.
Results are given in words; binding and its absence hold for the method and conditions named. Binding seen in cells or lysates may run through a third protein. These calls come from enrichment with a bait or labelling near it, and not all partners need be listed.

Molecular target: hemolysin-coregulated protein 1 (Hcp1), His-tagged (E. coli K1 RS218)
Assay: affinity purification with mass spectrometry; HBMEC cells treated with His-tagged Hcp1, lysed (50 mM Tris-HCl pH 7.5, 1% NP-40, 150 mM NaCl, 5 mM EDTA, 5 mM EGTA); precipitated with anti-His antibody on Protein A beads (IgG control); SDS-PAGE bands digested in gel and identified by LC-MS; only the target purified

B1: Rho GTPase activating protein 24 (ARHGAP24) (protein, UniProt Q8N264 1-748)
chain: MEENNDSTENPQQGQGRQNAIKCGWLRKQGGFVKTWHTRWFVLKGDQLYYFKDEDETKPLGTIFLPGNKVSEHPCNEENPGKFLFEVVPGGDRDRMTANHESYLLMASTQNDMEDWVKSIRRVIWGPFGGGIFGQKLEDTVRYEKRYGNRLAPMLVEQCVDFIRQRGLKEEGLFRLPGQANLVKELQDAFDCGEKPSFDSNTDVHTVASLLKLYLRELPEPVIPYAKYEDFLSCAKLLSKEEEAGVKELAKQVKSLPVVNYNLLKYICRFLDEVQSYSGVNKMSVQNLATVFGPNILRPKVEDPLTIMEGTVVVQQLMSVMISKHDCLFPKDAELQSKPQDGVSNNNEIQKKATMGQLQNKENNNTKDSPSRQCSWDKSESPQRSSMNNGSPTALSGSKTNSPKNSVHKLDVSRSPPLMVKKNPAFNKGSGIVTNGSFSSSNAEGLEKTQTTPNGSLQARRSSSLKVSGTKMGTHSVQNGTVRMGILNSDTLGNPTNVRNMSWLPNGYVTLRDNKQKEQAGELGQHNRLSTYDNVHQQFSMMNLDDKQSIDSATWSTSSCEISLPENSNSCRSSTTTCPEQDFFGGNFEDPVLDGPPQDDLSHPRDYESKSDHRSVGGRSSRATSSSDNSETFVGNSSSNHSALHSLVSSLKQEMTKQKIEYESRIKSLEQRNLTLETEMMSLHDELDQERKKFTMIEIKMRNAERAKEDAEKRNDMLQKEMEQFFSTFGELTVEPRRTERGNTIWIQ
B1 was tested, and the binding was “binds”.
